Test results from patent publication US20030073818A1.
These are yes or no findings as the source states them, for the method shown. In cells and extracts the contact can be indirect. Some binding calls cover weakened binding; strength is not graded here.

Biological target: S-Calcyon fusion protein (N-terminal S peptide tag and residues 93-217 of Calcyon) (human)
Test: competition in the pull-down of GSTD1 by immobilized S-Calcyon

Question: How did the binding turn out when SVILDYDTDVSLEKI [Peptide1 421-435, peptide containing D1 receptor residues 421-435] was run?
Answer: The binding was “binds”.
